Results deposited as PubChem BioAssay AID504808 (Drosophila RNAi Screening Center, 2011).

Test: 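Fly genes required to hold E2F transcription in check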 (primary screen)
System: Drosophila S2 cells
Knock-down reagent: long dsRNA against Drosophila genes
Read-out: 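Dual luciferase plate measurements; E2F-specific signal taken as firefly over Renilla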
Scale: E2F firefly: higher = more E2F reporter activity; Renilla normaliser: higher = more normaliser reporter signal
Call rule: 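Called active if the normalised E2F reporter went up by over 50%; the cutoff is arbitrary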
In all, the deposit lists about 21,000 reagents; below is a random part of those that have a named target and a result. In the full data, 18 (0.084%) were called active. 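Raw counts without plate normalisation, one of two replicates; the ratio scores behind the calls were not deposited.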 Unmarked entries are inactive. The numbers tell different reagents against one gene apart. A plus sign joins genes that one reagent is predicted to hit. Not stated in the record: the amount of reagent, the time to read-out.

CG6610 (GeneID 38693)
- E2F firefly, rep 1: 87183
- Renilla normaliser, rep 1: 3462

mdu (GeneID 32201)
- E2F firefly, rep 1: 48701
- Renilla normaliser, rep 1: 3127

spir (GeneID 45931)
- E2F firefly, rep 1: 1.21e5
- Renilla normaliser, rep 1: 5239

CG14537 (GeneID 34072)
- E2F firefly, rep 1: 1.43e5
- Renilla normaliser, rep 1: 4995

stnB + stnA #1
- E2F firefly, rep 1: 61654
- Renilla normaliser, rep 1: 3805

stnB + stnA #2
- E2F firefly, rep 1: 77555
- Renilla normaliser, rep 1: 4665

stnB + stnA #3
- E2F firefly, rep 1: 1.34e5
- Renilla normaliser, rep 1: 7007

hoip (GeneID 44173)
- E2F firefly, rep 1: 64783
- Renilla normaliser, rep 1: 159

trn (GeneID 39491)
- E2F firefly, rep 1: 1.30e5
- Renilla normaliser, rep 1: 5519

dock (GeneID 33262)
- E2F firefly, rep 1: 82744
- Renilla normaliser, rep 1: 3694

numb (GeneID 34263)
- E2F firefly, rep 1: 91077
- Renilla normaliser, rep 1: 4261

CG33494 (GeneID 2768686)
- E2F firefly, rep 1: 85556
- Renilla normaliser, rep 1: 2831

CG6933 (GeneID 40214)
- E2F firefly, rep 1: 68994
- Renilla normaliser, rep 1: 3272

Lrt (GeneID 37342)
- E2F firefly, rep 1: 1.01e5
- Renilla normaliser, rep 1: 4011

Idgf5 (GeneID 37104)
- E2F firefly, rep 1: 68130
- Renilla normaliser, rep 1: 180

CG15208 (GeneID 32022)
- E2F firefly, rep 1: 7828
- Renilla normaliser, rep 1: 768

Uch-L5 (GeneID 39102)
- E2F firefly, rep 1: 82862
- Renilla normaliser, rep 1: 3517

RabX1 (GeneID 44172)
- E2F firefly, rep 1: 99612
- Renilla normaliser, rep 1: 4817

side-VIII (GeneID 37310) #1
- E2F firefly, rep 1: 1.29e5
- Renilla normaliser, rep 1: 5163

side-VIII (GeneID 37310) #2
- E2F firefly, rep 1: 1.15e5
- Renilla normaliser, rep 1: 4318

side-VIII (GeneID 37310) #3
- E2F firefly, rep 1: 1.56e5
- Renilla normaliser, rep 1: 4990
